According to PubChem BioAssay AID720504 (National Center for Advancing Translational Sciences (NCATS), 2013):
Screen size: about 360,000 compounds; about 10,000 (2.8%) were called active. The shares of active, inactive and inconclusive entries below differ from those in the screen. Calls come from the whole dose curve; as a rule, active = well fitted inhibition curve with a large enough effect; inconclusive = small, poorly fitted or top-dose-only effect; inactive = flat fitted curve, though single readings scatter. Where the call is inconclusive, the potency comes from a doubtful curve fit.

Chains of the proteins cited; added tags and fusions are not shown.
UniProt P53350, whole entry, looked up: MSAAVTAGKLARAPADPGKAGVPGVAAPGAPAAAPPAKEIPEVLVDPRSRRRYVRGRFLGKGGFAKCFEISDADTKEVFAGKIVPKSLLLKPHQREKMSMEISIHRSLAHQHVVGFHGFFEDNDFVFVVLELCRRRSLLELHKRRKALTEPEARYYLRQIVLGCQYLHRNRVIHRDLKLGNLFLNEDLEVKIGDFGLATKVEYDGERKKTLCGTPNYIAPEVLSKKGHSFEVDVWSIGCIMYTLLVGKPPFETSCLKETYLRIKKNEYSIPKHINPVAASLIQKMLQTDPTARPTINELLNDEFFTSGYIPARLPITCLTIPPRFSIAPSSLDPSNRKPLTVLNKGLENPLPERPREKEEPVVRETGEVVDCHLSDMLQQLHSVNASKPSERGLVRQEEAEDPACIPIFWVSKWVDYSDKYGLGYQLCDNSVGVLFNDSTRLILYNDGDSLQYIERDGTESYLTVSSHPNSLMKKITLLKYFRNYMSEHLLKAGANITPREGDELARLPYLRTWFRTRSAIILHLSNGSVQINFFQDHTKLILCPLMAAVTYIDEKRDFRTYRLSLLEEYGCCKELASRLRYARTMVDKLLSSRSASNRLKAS

These compounds were tested against Serine/threonine-protein kinase PLK1 (Homo sapiens) (UniProt P53350) (assay: qHTS for Inhibitors of PLK1-PDB (polo-like kinase 1 - polo-box domain): Primary Screen). Conditions: Plk1 PBD binding of FITC phosphopeptide, fluorescence polarization.
% is set by controls: 0 for no effect and ±100 for the full control effect; potency is the fitted concentration of half-maximal effect.
Note: nearly all actives have a fitted effect of over 65% in size.
Throughout, for max response, negative = inhibition: series mostly up to about 57 µM.

SMILES | Potency | max response, negative = inhibition
CCN(CC)c1ccc(CC2C(=O)N(C)C(=O)N(C)C2=O)cc1 | inconclusive: 23.8 µM [inhibitor, single point] | –
CCCCN1CCC(O)(c2ccccc2)C(C(=O)c2ccccc2)C1 (stereo not drawn) | inconclusive: 26.7 µM [inhibitor, partial curve] | –
CCOC(=O)c1c(C)n(COCCO)c2ccc(O)cc12 | – | inactive: -5.39%
O=c1[nH]c(=O)n(-c2cccc(F)c2)c(O)c1/C=C1\C=Nc2ccccc21 | inconclusive: 5.32 µM [inhibitor, partial curve] | –
CN(C)c1ccc(/C=C2\C(=O)NC(=O)N(CCc3ccc(F)cc3)C2=O)cc1 | active: 1.06 µM | –
CCOP(=O)(C1=C(O)C(=O)C(C(C)(C)C)=CC1=O)c1ccccc1 (stereo not drawn) | inconclusive: 21.2 µM [inhibitor, single point] | –
O=C1Nc2ccccc2C1Cc1nc2ccccc2c(=O)n1-c1ccccc1 (stereo not drawn) | active: 21.2 µM | –
CCOC(=O)Cc1[nH]nc2c1C(c1ccoc1)C(C#N)=C(N)O2 (stereo not drawn) | inconclusive: 37.7 µM [inhibitor, single point] | –
CN1C[C@H](CO)C[C@@H]2c3cccc4[nH]cc(c34)C[C@H]21 | – | inactive: -3.73%
CC(C)c1ccc(C(c2c(O)c3ccccc3oc2=O)c2c(O)c3ccccc3oc2=O)cc1 | active: 21.2 µM | –
Cc1ccc2nc(C)n(-c3ccc(F)cc3)c(=O)c2c1 | active: 21.2 µM | –
O=C(COc1ccccc1)N1CCN(CCN2C(=O)c3cccc4cccc(c34)C2=O)CC1 | active: 16.8 µM | –
O=C(Cn1cc(C=C2C(=O)NC(=O)NC2=O)c2ccccc21)NCC1CCCO1 (stereo not drawn) | inconclusive: 2.99 µM [inhibitor, full curve] | –
CCN(CC)c1ccc(/C=C2/C(=O)NC(=O)N(Cc3ccco3)C2=O)cc1 | inconclusive: 0.752 µM [inhibitor, full curve] | –
N#Cc1c(/N=C/c2cc(Br)cs2)sc2c1CCC2 | inconclusive: 26.7 µM [inhibitor, partial curve] | –
Cc1cc(/C=C2\C(=O)NC(=O)N(Cc3ccco3)C2=O)c(C)n1-c1ccc(C(=O)O)cc1 | inconclusive: 26.7 µM [inhibitor, single point] | –
CCn1nc(-c2ccccc2)nc2c(=O)n(C)c(=O)nc1-2 | inconclusive: 23.8 µM [inhibitor, partial curve] | –
Cc1cc(C(C#N)c2ccc(Cl)cc2)c(Cl)cc1NC(=O)c1cc(I)cc(I)c1O (stereo not drawn) | inconclusive: 18.9 µM [inhibitor, partial curve] | –
CC1=NN(c2ccccc2)C(=O)C1/C=C1\C(=O)NC(=O)N(c2ccc(C)c(C)c2)C1=O (stereo not drawn) | active: 21.2 µM | –
C[N+]12CCC(CC1)C(=C(c1ccccc1)c1ccccc1)C2 | – | inactive: -16.3%
Cc1ccccc1-n1c(O)c(C(c2ccncc2)c2c(O)n(-c3ccccc3C)c(=O)[nH]c2=O)c(=O)[nH]c1=O | inconclusive: 26.7 µM [inhibitor, partial curve] | –
S=P(NC1CCCCC1)(N1CC1)N1CC1 | – | inconclusive: -35.7% [inhibitor]

Complete entries from above. Values in the order: Potency | max response, negative = inhibition
CCCCN1CCC(O)(c2ccccc2)C(C(=O)c2ccccc2)C1 (stereo not drawn) reads inconclusive: 26.7 µM [inhibitor, partial curve] | –
CN1C[C@H](CO)C[C@@H]2c3cccc4[nH]cc(c34)C[C@H]21 reads – | inactive: -3.73%
O=c1[nH]c(=O)n(-c2cccc(F)c2)c(O)c1/C=C1\C=Nc2ccccc21 reads inconclusive: 5.32 µM [inhibitor, partial curve] | –

(cont.)

SMILES | Potency | max response, negative = inhibition
NC(N)=Nc1ccc2[nH]c3c(c2c1)C[C@@]1(O)[C@H]2Cc4ccc(O)c5c4[C@@]1(CCN2CC1CC1)[C@H]3O5 | active: 0.947 µM | –
CCN1C(=O)C(=C/C=C/c2ccco2)C(=O)N(CC)C1=S | inconclusive: 0.597 µM [inhibitor, full curve] | –
CCCCCCCC(=O)NC(Oc1ccccc1[N+](=O)[O-])C(Cl)(Cl)Cl (stereo not drawn) | – | inconclusive: -31% [inhibitor]
COc1cc(C(=S)N2CCOCC2)cc(OC)c1OC(=O)Cc1ccccc1 | inconclusive: 13.4 µM [inhibitor, partial curve] | –
[N-]=[N+]=NCc1cn2cccnc2n1 | – | inactive: -14.4%
Cc1ccccc1CN1Cc2cnnn2-c2ccccc2C1C#N (stereo not drawn) | inconclusive: 26.7 µM [inhibitor, partial curve] | –
COC(=O)C1=C(c2cc3ccccc3s2)C[C@@H]2CC[C@H]1N2C(=O)NCc1ccccc1 | – | inactive: -15.5%
CCOC(=O)[C@]12Cc3cc(OC)ccc3[C@H]1N(CC(=O)OC)C(=O)c1cc(OC)ccc12 | active: 13.4 µM | –
CCOC(=O)[C@]12Cc3cc(OC)ccc3[C@H]1N(Cc1ccccc1)C(=O)c1cc(OC)ccc12 | inconclusive: 23.8 µM [inhibitor, single point] | –
COCCn1c(SCc2ccccc2Cl)nc2c1c(=O)[nH]c(=O)n2C | inconclusive: 29.9 µM [inhibitor, partial curve] | –
CN1CCC2(CC1)C(C#N)=C(N)NC(S)=C2C#N | inconclusive: 10.6 µM [inhibitor, partial curve] | –
COc1c(C)cc(C(=O)C2CCCN(Cc3ccccn3)C2)cc1C (stereo not drawn) | – | inactive: -9.88%
O=[N+]([O-])/C=C1\NCCN1Cc1ccc(Cl)nc1 | inconclusive: 18.9 µM [inhibitor, partial curve] | –
O=C(CCN1CCOCC1)NCC(=O)Nc1ccc(Br)cc1C(=O)c1ccccc1 | inconclusive: 29.9 µM [inhibitor, single point] | –
O=C1CC(N2CC=C(c3ccc(F)cc3)CC2)C(=O)N1c1ccc(F)cc1 (stereo not drawn) | – | inactive: -5.15%
CC[C@H](C)/C=C(C)/C=C/C1=CC2=C(Cl)C(=O)[C@](C)(OC(C)=O)C(=O)C2=CO1 | active: 1.06 µM | –
CCOc1ccc(CN(CCCl)CCCl)cc1C(=O)OC | active: 26.7 µM | –
O=C1/C(=C\c2ccccc2)C2OCC=C3CN4CCC56c7ccccc7N1C5C2C3CC46 (stereo not drawn) | – | inactive: 1.79%
CCCNC(=O)c1c(N)n(Cc2ccco2)c2nc3ccccc3nc12 | inconclusive: 29.9 µM [inhibitor, partial curve] | –
COc1ccc(C2C(C#N)=C(N)Oc3n[nH]c(C)c32)cc1Cn1cc([N+](=O)[O-])cn1 (stereo not drawn) | inconclusive: 23.8 µM [inhibitor, single point] | –
O=C1NC(=S)N(c2ccc(Cl)cc2)C(=O)/C1=C/N1CCN(C(=O)c2ccco2)CC1 | inconclusive: 29.9 µM [inhibitor, single point] | –
